In PubChem BioAssay AID504444 (National Center for Advancing Translational Sciences (NCATS), 2011):
Hit rate of the full screen: of about 360,000 compounds, about 7,500 (2.1%) were called active. The shares of active, inactive and inconclusive entries below differ from those in the screen. Calls follow the shape of the dose curve; as a rule, active = well fitted inhibition curve with a large enough effect; inconclusive = small, poorly fitted or top-dose-only effect, or effect the other way; inactive = flat fitted curve, though single readings scatter. Where the call is inconclusive, the potency comes from a doubtful curve fit.
% is scaled to controls: 0 for no effect and ±100 for the full control effect; potency is read from the fitted curve at half-maximal effect.

Assay: Nrf2 qHTS screen for inhibitors; also: nearly all actives have a fitted effect of over 60% in size
Settings: A549 ARE-Fluc reporter, luciferase luminescence, 18-24 h; activity change, negative = inhibition: at 46 µM (top of the series)
Method in brief: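 A549 ARE_Fluc cells (5000/well, 5% FBS OPTI-MEM) pre-incubated 2 h, then treated with compounds 18-24 h at 37C/5% CO2 in concentration-response. CellTiter-Fluor viability read first; BugLite luciferase luminescence after 15 min at room temperature gives Nrf2 activity.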
In the case of `CC(C)NC(=S)NC(=O)c1ccc(-c2ccccc2)cc1`, the Potency is reported as inconclusive: 20.6 µM [falling, partial curve]. With `CC(=O)Nc1ccc(S(=O)(=O)N2CCN(CC(O)COc3ccc4ccccc4c3)CC2)cc1` (stereo not given) the Potency was inconclusive: 29.1 µM [falling, single point]. With `CC1(C)NC(=O)N(CCCCOc2ccc3ccccc3c2Cl)C1=O` the Potency was inconclusive: 29.1 µM [falling, single point]. In the case of `CN(CC(=O)NCCCN1CCOCC1)S(=O)(=O)c1ccc(Cl)cc1`, the “activity change, negative = inhibition” value is reported as inactive: -29.1%. With `NCCCn1c(C(=O)c2ccc(Cl)cc2)c2ccc([N+](=O)[O-])cc2[n+]1[O-]` the Potency was inconclusive: 20.6 µM [activator, single point]. For `CCN(CC(=O)NCc1ccc(F)cc1)C(=O)/C=C/c1ccc(OC)c(S(=O)(=O)NC(C)C)c1`, the Potency was inconclusive: 18.4 µM [activator, partial curve]. For `CC(C)c1ccc(OCC(=O)N(Cc2ccc(N(C)C)cc2)C2CCS(=O)(=O)C2)cc1` (stereo not given), the Potency was inconclusive: 20.6 µM [falling, single point]. For `Nc1c(Br)cc2oc(-c3ccccc3)nc2c1Br`, the Potency was inconclusive: 2.31 µM [activator, full curve]. With `COc1cc(OC)cc(C(=O)Nc2ccc3c(c2)COC3=O)c1` the Potency was inconclusive: 25.9 µM [activator, single point]. For `O=c1c(S(=O)(=O)c2cccc(Cl)c2)cn(Cc2ccccc2)c2cc(N3CCOCC3)c(F)cc12`, the Potency was inconclusive: 0.116 µM [falling, full curve, poor fit]. For `CCOc1ccc(C(=O)OCC(=O)Nc2cc(S(=O)(=O)N3CCOCC3)ccc2N2CCOCC2)cc1`, the Potency was inconclusive: 3.26 µM [activator, full curve, poor fit]. In the case of `O=C(NCc1ccc2c(c1)OCO2)C(=O)Nc1cc2c3c(c1)CC(=O)N3CCC2`, the Potency is reported as inconclusive: 20.6 µM [falling, partial curve]. In the case of `COc1ccc(C2CC(=O)Oc3c(C(CCN4CCCC(C)C4)c4ccc(N(C)C)cc4)c(OC)cc(OC)c32)cc1` (stereo not given), the Potency is reported as “inactive”. For `Cc1cc(NC(=O)CSc2nc3c(C)c(C)ccc3cc2C)no1`, the “activity change, negative = inhibition” value was inactive: -12.4%. With `Cc1ccccc1NC(=O)CCC(=O)N/N=C/c1c[nH]c2ccccc12` the Potency was inconclusive: 29.1 µM [activator, single point]. With `COc1ccc(/C(N)=N/OC(=O)c2c(-c3ccccc3Cl)noc2C)cc1OC` the Potency was inconclusive: 29.1 µM [falling, single point]. In the case of `COc1ccc(CCNC(=O)c2cc3c(=O)n(C)c4ccccc4c3n2C)cc1OC`, the Potency is reported as inconclusive: 11.6 µM [falling, partial curve, poor fit]. With `CCOC(=O)c1c(C)n(C)c2ccc(OCC(O)Cn3c(C)nc4ccccc43)cc12` (stereo not given) the Potency was inconclusive: 18.4 µM [falling, partial curve]. With `CC(=O)Nc1cccc(/C(C)=N/NC(=O)c2c(-c3ccccc3Cl)noc2C)c1` the Potency was active: 9.2 µM. In the case of `COc1ccc2ncc3c(-c4ccc(C)c(C)c4)nn(CC(=O)NC4CCCC4)c3c2c1`, the “activity change, negative = inhibition” value is reported as inactive: -4.68%. In the case of `CCOc1ccc(C(=O)O/N=C(\N)c2ccccn2)cc1`, the Potency is reported as inconclusive: 29.1 µM [falling, single point]. In the case of `CN(CCCC1CCCC1)C(=O)c1cc(COc2c(F)cccc2F)on1`, the Potency is reported as inconclusive: 11.6 µM [falling, partial curve, poor fit]. In the case of `Cc1cc(C)n2nc(SCC(=O)N3CCC(C(=O)O)CC3)nc2n1`, the Potency is reported as inconclusive: 6.51 µM [activator, single point]. For `COc1ccc(NC(=O)c2cc(C(C)C)on2)c(OC)c1`, the Potency was inconclusive: 9.2 µM [activator, partial curve]. For `O=C(Nc1ccc(O)cc1)c1cccc(Oc2ccc([N+](=O)[O-])cc2)c1`, the Potency was inconclusive: 29.1 µM [falling, single point]. With `COc1cc(/C=C(\C#N)C(=O)Nc2cccc(C(=O)O)c2)ccc1OCc1ccc(F)cc1` the “activity change, negative = inhibition” value was inactive: 3.54%. With `O=C(NNC(=O)c1csc(-c2cnccc2C(F)(F)F)n1)c1ccc(C(F)(F)F)cc1` the Potency was inconclusive: 29.1 µM [falling, single point]. In the case of `Cc1cc(C)c(NC(=O)CSc2nnc(CNC(=O)c3ccccc3F)o2)c(C)c1`, the “activity change, negative = inhibition” value is reported as inactive: 5.24%. In the case of `CC(C)(CNC(=O)c1ccc(Cl)c(S(=O)(=O)N2CCc3ccccc3C2)c1)N1CCOCC1`, the Potency is reported as active: 13 µM. In the case of `CCc1ccc(N/C(SC)=C(/C#N)C(N)=O)cc1`, the Potency is reported as inconclusive: 7.31 µM [activator, partial curve, poor fit]. In the case of `CCN(CC)CC(=O)Nc1scc2c1c(=O)oc1ccccc12`, the Potency is reported as inconclusive: 0.58 µM [activator, full curve, poor fit]. With `CCc1nc2ccccc2c(C(=O)OCC(=O)N(CC(C)C)c2c(N)n(Cc3ccccc3)c(=O)[nH]c2=O)c1C` the Potency was inconclusive: 13 µM [falling, partial curve, poor fit]. With `O=C(N/N=C/c1ccc2cccnc2c1)c1ccco1` the Potency was inconclusive: 20.6 µM [activator, partial curve]. With `COC(=O)c1ccccc1C(=O)N1CCC(CCC(=O)NC2CC2)CC1` the “activity change, negative = inhibition” value was inactive: -4.79%. With `O=C(Nc1cccc(C(F)(F)F)c1)c1ccc2nc(N3C(=O)CCC3=O)sc2c1` the Potency was inconclusive: 6.51 µM [falling, partial curve]. For `CCOc1ncccc1C(=O)NNC(=O)c1cccc(S(=O)(=O)Nc2ccc(OC)cc2)c1`, the Potency was inconclusive: 32.6 µM [falling, partial curve, poor fit]. In the case of `FC(F)(F)c1cc(-c2cccs2)nc2ncnn12`, the Potency is reported as inconclusive: 23.1 µM [falling, partial curve, poor fit]. With `CCc1ccc(CNCc2c(C(=O)O)n(Cc3ccc(F)cc3Cl)c3cc(OC)ccc23)cc1` the Potency was inconclusive: 29.1 µM [falling, single point]. For `COC(=O)Nc1nnc(Cc2ccc(Cl)cc2)s1`, the Potency was inconclusive: 6.51 µM [falling, partial curve, poor fit]. With `Cc1ccnc(NC(=O)C2CCN(S(=O)(=O)c3ccc4c(c3)CC(C)N4C(=O)C3CCC3)CC2)c1` (stereo not given) the Potency was inconclusive: 13 µM [falling, partial curve, poor fit].
